Here are results for 107 sequences from PubChem BioAssay AID1347426 (Functional Genomics Laboratory (NCATS/FGL), 2020).

Screen size: about 31,000 sequences; about 1,400 (4.5%) were called active.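 Rule for the calls: active = median seed-adjusted z-score above 1 or below -1; inactive = the rest.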 The list shows a part of the results.

The assay can be described thus: Novel Modifiers of Survival Motor Neuron (SMN) Protein: Gene Identification via Genome-wide siRNA Screen.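 Note: luminescence tracks full-length SMN protein made from the SMN2 reporter.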 The following applies: HEK293T SMN2-luciferase reporter, siRNA knockdown, 72 h; actives lie on both sides. The gist of the method: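 Genome-wide siRNA screen (10418 genes, 3 siRNAs each, 1 pmol per well) by reverse transfection in HEK293T cells stably carrying an SMN2-luciferase reporter; luminescence after 72 hours, normalized to negative-control siRNA, log10-transformed, MAD-scored.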
(A reporter such as luciferase makes a cellular process visible.)
Consider GCAAGCGAGUCAACACCAATT against DRD2, for which the median seed-adjusted z-score is inactive: -0.0273.
Consider GUAGGAAUGCUAACAAUUATT against PRKAG2, for which the median seed-adjusted z-score was inactive: -0.367.
The result for CCGUCAAGGUGUAUUUUGATT against PPIB reads inactive: 0.038; that for GUAUCUAGUGAGACAAUUATT against GABRA6, inactive: 0.466; that for CCAUUAAAGAAAAGGGUAATT against CA13, inactive: -0.212.
Under GGAAUUGCCGUGUGCAACATT against CTBP2 stands inactive: -0.241; under GGAUCAAGGCGGAGAGGAATT against JUN, inactive: 0.381; under CUCCACUGCUUUUCCAAGATT against DBX2, inactive: 0.244.
On to AGUACAUCCCUGGAACAAATT against CYCS, for which the median seed-adjusted z-score is inactive: -0.679.
The result for CAGUGAAGGUGAAAUUCGATT against UCHL5 reads inactive: -0.358.
Regarding GCAGCUUCGAGAUGCUGUATT against GMEB2, the median seed-adjusted z-score is inactive: -0.669.
The result for CGCAAAGCUUUGACAAAGATT against COX4I1 reads inactive: -0.39; that for GAGUGAUCCUGGAUAUACATT against FUT8, inactive: 0.464.
Under UGAAGAAAGUGCACGAAGATT against NEFL stands inactive: 0.305.
Under GGACUUCGACUGCAAUACUTT against GJB5 stands inactive: 0.338.
As for CCGUCUACCUCUUCAGCUUTT against SLC16A3, the median seed-adjusted z-score was inactive: -0.353.
Under ACGCGUUUGUAGCAACUGATT against DHX58 stands inactive: -0.302; under CCAACAAUGUGGGACACCATT against PARP14, inactive: -0.289; under GCAAUUUGUCCGUCAACUATT against SELPLG, inactive: 0.0378.
The result for GGAUCCAUAUAAACAGGGATT against FGB reads inactive: 0.481; that for CCAGAUAUGGUAUCCCAAUTT against ZNF227, inactive: 0.0194; that for GUCUCAGCGUACUUAAGAATT against RPP25, inactive: 0.
The result for CGACCAUGAUUCAGACCUATT against PDPR reads inactive: -0.0653; that for GACAGUUUCCCUACAAGAATT against MAP2K7, inactive: -0.772.
Turning to CUGGAAUCAUUAUAAGGAUTT against RAMP2, the median seed-adjusted z-score was inactive: 0.289.
Under AGAGCUUCCCUUCUACAGATT against UTS2 stands inactive: 0.0487.
The result for GCAUCGAGAUCGCGACCUATT against GSX1 reads inactive: 0.677; that for GAACGAUCGUGACUUGAUATT against LCTL, inactive: -0.0821; that for UGGUGUCGCUGGAGAAGUATT against GPX7, inactive: -0.971.
Turning to AGAUCGCACUCAUCAUCUUTT against MEF2D, the median seed-adjusted z-score was inactive: 0.0021.
On to GCUGAAUCGUCAGAACCAATT against MPO, for which the median seed-adjusted z-score is inactive: -0.223.
Under AGAUCGAAAAUCAAGUUCATT against OVOL2 stands inactive: 0.654; under AGACGAGUGUAAUGUGGUATT against NPM3, inactive: 0.0417; under GUAUGGAAAUUUCAUCGAUTT against GTPBP10, inactive: 0.
Under GAAGAGUACUCUCAGUAUATT against ZNF615 stands inactive: 0.0912.
Under CCAGGUUUUCAAUCAGAUUTT against SERPINE2 stands inactive: 0.0144.
Regarding CAGAUGCUCUGAACCCUGATT against CASP10, the median seed-adjusted z-score is inactive: -0.0372.
The result for GGCUAUAUGUUACCCUUGUTT against SVOPL reads inactive: 0.439.
The result for GGACCUUGUUCAGAACACUTT against HPCAL4 reads inactive: 0.282; that for CCGCGCAGUUCAUCUCAAATT against SNX15, inactive: -0.152; that for GCGCAUUACUUUCUAGAAATT against PEX5L, inactive: 0.0982.
The result for GCUCCUAUGUAUUAGAUCATT against SERPINA4 reads inactive: 0.419; that for GAGAGAAGGUGAUACGCUATT against PAPPA2, inactive: -0.173.
CUCCCAAUGAGGUUGUUAATT against ZBTB2: the median seed-adjusted z-score was inactive: 0.217.
Turning to GUGUACUCUUUUUAUGAAATT against ZNF430, the median seed-adjusted z-score was inactive: 0.681.
Under GGUGUUCCACGAGUUCUUUTT against DNAJB13 stands inactive: 0.092.
Under GGACAUCCUGUCAUAGAAATT against UTP3 stands active: -1.08.
Under CCUCUCCCAUGAGCACCAATT against NUDT2 stands inactive: 0.891; under GGGCUCUAAUGAGACUAGATT against LRPPRC, inactive: -0.373; under CCAAAUCGCUCAAUAAGGATT against KATNAL2, inactive: -0.85.
As to GGACUGUGAACGAAGGUUUTT against WT1, the median seed-adjusted z-score was inactive: 0.236.
The result for GAAGAUUGCUAAUGACAAUTT against GOT1 reads inactive: 0.0103; that for CAGUGGAUGUGACAGUUCATT against CUTC, inactive: -0.377.
Under GCGAUCUCUUCGAUGCUUATT against E2F3 stands inactive: -0.215; under GGAUGGUGCAGACUGUUCATT against CLDN18, inactive: 0.000299; under CAUCCAAUGUCCCAAGGAATT against CCL8, inactive: 0.436.
Regarding AGAGCUUCAUGGGAGGGAATT against BPIL3, the median seed-adjusted z-score was inactive: -0.0506.
Under CCACCUACUGUAACCAAAUTT against RNASE1 stands inactive: 0.085; under GAGUGAUCCUUUCCUACAATT against GCLC, inactive: -0.21.
On to GGGUAGAAAAGACCAAGAUTT against ADRB3, for which the median seed-adjusted z-score was inactive: 0.17.
Take GGUCUCUAAUGAUAAGAAATT against PCDHB11: the median seed-adjusted z-score is inactive: -0.257.
The result for UGGGAGGCCUUAUCCUCAATT against FXYD4 reads inactive: -0.0447; that for GGCUCGAGCUGGAAUCAUUTT against NPEPPS, inactive: 0; that for GACCUUCACCGUUACGUUATT against HDLBP, active: -1.18.
For CAAAGGACAGUAUUAUCUATT against RG9MTD1, the median seed-adjusted z-score is inactive: -0.375.
The result for ACAUGGUUAUUCCCAGUGATT against AKR1CL2 reads inactive: -0.949.
The result for GAAGAUUACUGACCUGCGATT against RARA reads inactive: -0.0195.
Under GCACCGUUUUAGUGAGAAUTT against PCDHA6 stands inactive: 0.419; under CAACCGCAAAGUGAACAUUTT against AIFM3, inactive: -0.727; under GGACUGUCCUGGUACCUGATT against CYP27B1, inactive: -0.149.
In the case of CAGUAACGCGGACAAUGAATT against RHBG, the median seed-adjusted z-score was inactive: -0.126.
Regarding CGUCUUUCCAGAAUUCAAATT against HGS, the median seed-adjusted z-score is active: 1.16.
Under GUAAGGCUGCUAAUCUGUATT against ADHFE1 stands inactive: 0.418; under GCAACAUGCAUGAAGCCGATT against GFAP, inactive: -0.312.
Under CAGAUGUACGAGCUCUUUATT against PPP5C stands inactive: 0.473.
Under CAAAGGCAGUCUCAGCAUUTT against SYT12 stands inactive: -0.329.
Turning to CAAGUCAGGUUUCAUGUAATT against IRAK1, the median seed-adjusted z-score is inactive: -0.232.
The result for CGUGUCACCGCGACAAAAATT against RARG reads inactive: -0.0492; that for AGGUGAUGUCGGUCGGAGATT against RAB24, inactive: 0.123; that for CCUCUGCAAUUGUGCCCUUTT against ELF3, inactive: 0.43.
Under CCAACUCCAUGUACAUCGATT against LCP2 stands inactive: -0.826.
Under CUUUCCACCUGGGUACCAATT against FCGR3A stands inactive: 0.0786.
Take GGCUAAAGACGGCUCGAAATT against FKBP7: the median seed-adjusted z-score was inactive: -0.053.
The result for GAGCUGGAAUCGAUUAUAATT against CD38 reads inactive: 0.192.
As for GUCCUGCAUCUAUAUUAAATT against ZRANB2, the median seed-adjusted z-score was inactive: 0.441.
The result for AACUCCGAGUGUCUGCUGATT against GINS2 reads inactive: 0.553.
On to GGAAGUGGGUGUCGAAGAATT against MAN1B1, for which the median seed-adjusted z-score is inactive: -0.88.
For the sequence CACGCACAGUACUAGGUCATT against EXOSC3, the median seed-adjusted z-score was inactive: 0.569.
Under GGUCAAGCCGAGGACUGAATT against PPP2R3B stands inactive: 0; under UGCCUGUGCCCUUCACCAATT against SLC9A3R1, inactive: -0.418; under GUGAUGAGUUGAUACCAGATT against HSP90AB1, inactive: 0.
The result for CCACAAGGACGUAACAGAATT against CREB3L4 reads inactive: 0.229; that for GAACAUCUACUAUAAGAGUTT against GNMT, inactive: 0.0261.
Under AGACCGUUUUAGCACGGAATT against AP1S2 stands inactive: -0.323; under GCCUACCAGAAUCAACUGATT against TBX20, inactive: 0.00303; under GGUUUGGAAUGUUUGCUAATT against DEGS1, inactive: 0.0268.
For CCACAUAGGAUGUUGGUUATT against SLCO1A2, the median seed-adjusted z-score is inactive: -0.2.
The result for GGCGAACUGUUUUAGAAGATT against CCNB2 reads inactive: 0.0328; that for GUUCGACACUUGGAGAGAATT against CFL2, inactive: -0.148; that for GGAGAUAGAUAACAAUCCATT against PSIP1, inactive: 0.549.
In the case of CACUGAGAAUGCAUCCAAATT against CYP4B1, the median seed-adjusted z-score is inactive: -0.663.
The result for CAGUGCUAGUUUCACCAAATT against DNAJC27 reads inactive: 0.252; that for GCAGUUAGAUCACCGAGUUTT against FRMD4B, inactive: -0.567.
In the case of GCUAGGAACAGAUAUCACATT against PDE6H, the median seed-adjusted z-score is inactive: -0.0647.
Take GGAGAACAUUUUUAACGCATT against CACNA2D3: the median seed-adjusted z-score is inactive: 0.198.
The result for GAACCAUUGCCGAGAGGUUTT against IDI2 reads inactive: 0.578.
The result for CGUACGAAGUUGAUGCUUATT against FXR1 reads inactive: 0.131.
